The values below come from the supplement of paper PMC3682954.

Each structure is given as a SMILES string. Counter-ions that a name gives are not always drawn. ± gives the standard deviation of the averaged measurements. This is one part of the list. Most values come without repeats; read them as rough.

For this test, the system named is RAW 264.7. As to the kind of experiment: cell viability (MTT) relative to vehicle control; higher = more viable cells. To be noted: stimulus: HMGB1 5 ug/ml, 18 h.
The mark [1] stands for this setting: compound concentration: 1 ug/ml.

As usually defined, the cell viability is a read-out of living cells in per cent, often relative to untreated cells. As to `CN(C)CCc1c[nH]c2ccc(Cn3cncn3)cc12`, the cell viability (compound concentration: 3 uM) was 104 ± 1.2%. For `OCCN1CCN(CCCN2c3ccccc3Sc3ccc(Cl)cc32)CC1` [Perphenazine], where the note is “compound concentration: 3 uM”, the cell viability is 96.5 ± 3.5%. With `OCCN1CCN(CCCN2c3ccccc3Sc3ccc(Cl)cc32)CC1`, the cell viability (compound concentration: 3 uM) was 97.3%. The same measure, in the same setting: to `Nc1ccc(S(=O)(=O)c2ccc(N)cc2)cc1` belongs 99.4%; to `Nc1ccc(S(=O)(=O)c2ccc(N)cc2)cc1` [Dapsone], 97%; to `OC[C@H]1O[C@@H](Oc2ccc(O)cc2)[C@H](O)[C@@H](O)[C@@H]1O` [Arbutin], 94.2%. In the case of `C=C1C[C@H]2[C@@H]3C=C(C)C4=CC(=O)CC[C@]4(C)[C@H]3CC[C@]2(C)[C@@]1(OC(C)=O)C(C)=O` [Melengestrol Acetate], under “compound concentration: 3 uM”, the cell viability is 107%. For the molecule `C=C1C[C@H]2[C@@H]3C=C(C)C4=CC(=O)CC[C@]4(C)[C@H]3CC[C@]2(C)[C@@]1(OC(C)=O)C(C)=O` [Melengestrol acetate], under “compound concentration: 3 uM”, the cell viability amounted to 113%. On to `C=C1C[C@H]2[C@@H]3C=C(C)C4=CC(=O)CC[C@]4(C)[C@H]3CC[C@]2(C)[C@@]1(OC(C)=O)C(C)=O`, for which the cell viability (compound concentration: 3 uM) turned out to be 121%. On the same count and under the same terms, with `N[C@H]1C(O)O[C@H](CO)[C@@H](O)[C@@H]1O` (some centres undefined) the figure was 104%; with `O=c1oc(Cl)c(Cl)c2ccccc12` [3,4-Dichloroisocoumarin], 95.3%; with `Cc1ncc(CSSCc2cnc(C)c(O)c2CO)c(CO)c1O`, 103%. With `CC(=O)Oc1cccc2c1C(=O)c1c(OC(C)=O)cc(C(=O)O)cc1C2=O`, the cell viability (compound concentration: 3 uM) was 110%. Take `CC(=O)Oc1cccc2c1C(=O)c1c(OC(C)=O)cc(C(=O)O)cc1C2=O` [Diacerein]: under “compound concentration: 3 uM”, the cell viability amounted to 93.2%. For `N=C(N)NC(=N)N1CCOCC1` [Moroxydine HCl], where the note is “compound concentration: 3 uM”, the cell viability was determined as 112%. As for `N=C(N)NC(=N)N1CCOCC1`, where the note is “compound concentration: 3 uM”, the cell viability was found to be 111%. For `COc1nc(C)nc(Cl)c1NC1=NCCN1`, the cell viability (compound concentration: 3 uM) was 90.4%. As for `COc1nc(C)nc(Cl)c1NC1=NCCN1` [Moxonidine hydrochloride], the cell viability (compound concentration: 3 uM) worked out at 105%. In the case of `COc1nc(C)nc(Cl)c1NC1=NCCN1` [Moxonidine], the cell viability (compound concentration: 3 uM) is 99.1%. As for `COc1ccc2c(C)cc(=O)oc2c1OC` [7,8-Dimethoxy-4-methylcoumarin], under setting [1], the cell viability came out at 94.3%. As to `COc1cccc(-c2cc(=O)c3ccc(O)cc3o2)c1` [7-Hydroxy-3'-methoxyflavone], the cell viability under setting [1] is 96.3%. Turning to `N#CC(C#N)=C(N)/C(C#N)=C/c1ccc(O)cc1` [Tyrphostin AG 112], the cell viability (compound concentration: 3 uM) amounted to 111%.

Consider `NCCS(=O)(=O)O` [Taurine], for which the cell viability (compound concentration: 3 uM) was determined as 114%. `NCCS(=O)(=O)O`: under “compound concentration: 3 uM”, the cell viability came out at 107%. Regarding `COc1cc2nc(N3CCN(C(=O)c4ccco4)CC3)nc(N)c2cc1OC` [Prazosin], where the note is “compound concentration: 3 uM”, the cell viability worked out at 98.3 ± 3.8%. For the molecule `COc1cc2nc(N3CCN(C(=O)c4ccco4)CC3)nc(N)c2cc1OC`, the cell viability (compound concentration: 3 uM) stood at 109%.

For `COc1cc2nc(N3CCN(C(=O)c4ccco4)CC3)nc(N)c2cc1OC` [Prazosin hydrochloride], the cell viability reads like this: under setting [1], 103%; (compound concentration: 3 uM) 104 ± 6.3%. With `CCn1cc(C(=O)O)c(=O)c2cnc(N3CCNCC3)nc21` [Pipemidic acid], where the note is “compound concentration: 3 uM”, the cell viability was 106%. In the case of `CCn1cc(C(=O)O)c(=O)c2cnc(N3CCNCC3)nc21`, under “compound concentration: 3 uM”, the cell viability was determined as 108%. Take `O=c1c(O)c(-c2cc(O)c(O)c(O)c2)oc2cc(O)cc(O)c12` [Myricetin]: the cell viability came out at 90.7% under setting [1] and 108% (compound concentration: 3 uM). Consider `CC(=O)N[C@@H](CC(=O)N[C@@H](CCC(=O)O)C(=O)O)C(=O)O` [Spaglumic acid], for which the cell viability (compound concentration: 3 uM) was found to be 89%. Turning to `CC(=O)N[C@@H](CC(=O)N[C@@H](CCC(=O)O)C(=O)O)C(=O)O`, the cell viability (compound concentration: 3 uM) was 111%. In the case of `c1ccc(C(NCCNC(c2ccccc2)c2ccccc2)c2ccccc2)cc1`, the cell viability (compound concentration: 3 uM) turned out to be 109%. Regarding `COc1ccc(-c2cc(=O)c3c(O)cc(O)cc3o2)cc1` [Acacetin], the cell viability under setting [1] amounted to 111%. As for `Cc1ccc(S(=O)(=O)NC(=O)NN2CC3CCCC3C2)cc1` (centres undefined), the cell viability (compound concentration: 3 uM) was found to be 110%. As for `Cc1ccc(S(=O)(=O)NC(=O)NN2CC3CCCC3C2)cc1` (centres undefined) [Gliclazide], the cell viability (compound concentration: 3 uM) was 92.1 ± 17%. In the case of `COc1ccc(-c2oc3c(CC=C(C)C)c(O[C@@H]4O[C@H](CO)[C@@H](O)[C@H](O)[C@H]4O)cc(O)c3c(=O)c2O[C@@H]2O[C@@H](C)[C@H](O)[C@@H](O)[C@H]2O)cc1` [Icarrin], under setting [1], the cell viability worked out at 95%.

For the molecule `COc1ccc(-c2oc3c(CC=C(C)C)c(O[C@@H]4O[C@H](CO)[C@@H](O)[C@H](O)[C@H]4O)cc(O)c3c(=O)c2O[C@@H]2O[C@@H](C)[C@H](O)[C@@H](O)[C@H]2O)cc1`, the cell viability (compound concentration: 3 uM) was 87.9%. Regarding `C[C@H]1[C@@H](O)O[C@@H]2O[C@@]3(C)CC[C@H]4[C@H](C)CC[C@@H]1[C@@]24OO3`, the cell viability (compound concentration: 3 uM) came to 79.6%. Take `CCn1cc(C(=O)O)c(=O)c2ccc(C)nc21` [Nalidixic acid sodium salt]: the cell viability (compound concentration: 3 uM) is 110%.

`CCn1cc(C(=O)O)c(=O)c2ccc(C)nc21` [Nalidixic acid sodium]: the cell viability (compound concentration: 3 uM) came out at 108%. With `CCn1cc(C(=O)O)c(=O)c2ccc(C)nc21`, under “compound concentration: 3 uM”, the cell viability was determined as 122%.
